# Results of single-concentration screens

The chains behind the UniProt entries cited, without tags or fusion partners. Residues count along the entry.
UniProt P9WNZ1, whole entry: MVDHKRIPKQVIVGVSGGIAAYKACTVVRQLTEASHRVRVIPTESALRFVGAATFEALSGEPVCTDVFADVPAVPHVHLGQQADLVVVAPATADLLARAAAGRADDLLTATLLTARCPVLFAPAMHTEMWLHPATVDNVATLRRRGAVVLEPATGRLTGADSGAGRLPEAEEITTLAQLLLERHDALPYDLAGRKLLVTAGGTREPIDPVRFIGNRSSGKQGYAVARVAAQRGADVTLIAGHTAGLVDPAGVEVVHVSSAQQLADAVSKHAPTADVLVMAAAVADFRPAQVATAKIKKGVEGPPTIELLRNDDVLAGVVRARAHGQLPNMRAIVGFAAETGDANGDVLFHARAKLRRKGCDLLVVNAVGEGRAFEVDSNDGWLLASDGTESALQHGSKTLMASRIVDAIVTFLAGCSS
UniProt I6X8D2, whole entry: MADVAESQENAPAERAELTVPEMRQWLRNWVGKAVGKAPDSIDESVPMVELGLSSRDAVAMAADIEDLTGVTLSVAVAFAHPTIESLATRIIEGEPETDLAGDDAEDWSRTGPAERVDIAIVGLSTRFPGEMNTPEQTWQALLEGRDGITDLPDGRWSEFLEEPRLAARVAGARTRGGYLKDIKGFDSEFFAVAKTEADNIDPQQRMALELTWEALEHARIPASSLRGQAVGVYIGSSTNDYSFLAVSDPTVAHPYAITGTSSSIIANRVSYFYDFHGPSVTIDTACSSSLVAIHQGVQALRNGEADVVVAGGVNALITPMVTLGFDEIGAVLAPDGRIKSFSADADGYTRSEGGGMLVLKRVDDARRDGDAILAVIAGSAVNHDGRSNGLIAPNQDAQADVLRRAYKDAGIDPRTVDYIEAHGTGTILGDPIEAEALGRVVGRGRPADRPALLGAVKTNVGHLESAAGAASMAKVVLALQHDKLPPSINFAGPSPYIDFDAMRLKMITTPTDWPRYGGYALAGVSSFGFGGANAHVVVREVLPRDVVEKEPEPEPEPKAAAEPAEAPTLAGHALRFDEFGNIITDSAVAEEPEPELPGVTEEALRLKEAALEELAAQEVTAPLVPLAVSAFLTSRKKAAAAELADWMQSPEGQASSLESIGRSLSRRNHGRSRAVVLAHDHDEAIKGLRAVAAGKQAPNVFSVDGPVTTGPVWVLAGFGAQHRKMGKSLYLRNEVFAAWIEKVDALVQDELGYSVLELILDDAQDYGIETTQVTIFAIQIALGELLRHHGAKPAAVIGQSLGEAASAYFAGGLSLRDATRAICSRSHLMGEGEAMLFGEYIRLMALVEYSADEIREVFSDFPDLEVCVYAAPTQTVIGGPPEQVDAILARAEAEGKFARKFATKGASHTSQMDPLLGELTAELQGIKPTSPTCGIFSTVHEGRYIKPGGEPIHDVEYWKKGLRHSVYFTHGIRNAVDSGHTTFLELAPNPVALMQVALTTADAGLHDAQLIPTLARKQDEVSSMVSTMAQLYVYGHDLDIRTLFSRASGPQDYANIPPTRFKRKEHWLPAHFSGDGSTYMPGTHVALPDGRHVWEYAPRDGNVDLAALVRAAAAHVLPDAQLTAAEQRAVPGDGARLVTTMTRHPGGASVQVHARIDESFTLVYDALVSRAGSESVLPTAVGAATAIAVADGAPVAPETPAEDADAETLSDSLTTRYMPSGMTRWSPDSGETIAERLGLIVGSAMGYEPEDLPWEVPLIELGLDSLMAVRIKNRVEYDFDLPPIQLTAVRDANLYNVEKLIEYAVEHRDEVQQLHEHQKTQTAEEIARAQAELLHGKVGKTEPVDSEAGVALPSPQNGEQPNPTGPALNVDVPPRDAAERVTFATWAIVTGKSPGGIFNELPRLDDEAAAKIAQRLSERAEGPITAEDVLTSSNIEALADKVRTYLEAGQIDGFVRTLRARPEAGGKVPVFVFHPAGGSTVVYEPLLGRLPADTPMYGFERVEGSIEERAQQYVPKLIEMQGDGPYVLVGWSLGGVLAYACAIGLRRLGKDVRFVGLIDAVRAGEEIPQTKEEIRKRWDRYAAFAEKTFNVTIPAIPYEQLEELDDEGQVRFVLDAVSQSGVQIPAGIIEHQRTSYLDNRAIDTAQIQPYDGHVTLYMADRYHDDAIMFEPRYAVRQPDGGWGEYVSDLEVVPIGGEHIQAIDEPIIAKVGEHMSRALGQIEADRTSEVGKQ
UniProt P9WPC5, whole entry: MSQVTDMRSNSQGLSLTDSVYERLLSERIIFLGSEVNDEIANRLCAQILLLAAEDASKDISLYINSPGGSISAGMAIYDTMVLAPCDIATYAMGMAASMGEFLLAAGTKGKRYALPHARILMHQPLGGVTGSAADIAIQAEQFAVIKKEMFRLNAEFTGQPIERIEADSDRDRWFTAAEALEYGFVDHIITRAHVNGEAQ
UniProt P9WPC3, whole entry partner: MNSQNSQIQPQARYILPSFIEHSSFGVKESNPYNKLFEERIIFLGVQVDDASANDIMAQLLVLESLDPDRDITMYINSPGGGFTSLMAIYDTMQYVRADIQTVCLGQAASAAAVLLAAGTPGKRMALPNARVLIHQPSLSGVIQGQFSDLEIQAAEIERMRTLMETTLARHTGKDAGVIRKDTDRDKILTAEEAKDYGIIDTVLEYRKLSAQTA
UniProt A4I591, 1-473: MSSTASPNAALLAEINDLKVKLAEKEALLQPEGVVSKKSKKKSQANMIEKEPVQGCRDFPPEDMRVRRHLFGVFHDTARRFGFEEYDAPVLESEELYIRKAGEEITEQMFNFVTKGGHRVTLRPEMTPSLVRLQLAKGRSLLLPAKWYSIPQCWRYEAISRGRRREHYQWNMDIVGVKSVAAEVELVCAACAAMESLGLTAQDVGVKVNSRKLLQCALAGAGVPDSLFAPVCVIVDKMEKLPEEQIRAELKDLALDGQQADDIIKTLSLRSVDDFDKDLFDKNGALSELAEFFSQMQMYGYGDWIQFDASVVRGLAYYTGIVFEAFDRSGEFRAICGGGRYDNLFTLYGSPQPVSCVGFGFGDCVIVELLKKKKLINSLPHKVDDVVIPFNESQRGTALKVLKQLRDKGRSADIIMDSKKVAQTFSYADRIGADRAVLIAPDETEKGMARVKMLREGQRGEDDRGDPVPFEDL
UniProt P9WFT3, whole entry: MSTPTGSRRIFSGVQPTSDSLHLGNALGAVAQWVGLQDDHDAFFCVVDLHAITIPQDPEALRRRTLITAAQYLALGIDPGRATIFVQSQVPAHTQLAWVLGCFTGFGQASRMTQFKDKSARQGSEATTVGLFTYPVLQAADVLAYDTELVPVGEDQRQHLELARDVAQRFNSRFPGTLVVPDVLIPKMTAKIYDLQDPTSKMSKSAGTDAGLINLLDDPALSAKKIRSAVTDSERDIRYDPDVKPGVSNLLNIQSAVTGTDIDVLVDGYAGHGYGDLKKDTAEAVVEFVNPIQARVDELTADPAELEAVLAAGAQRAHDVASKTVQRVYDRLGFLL

The filed quantity is “Percent Effect” (%).
How 0% and 100% were set is not recorded. Most values in the screen are low, and negative values occur.
Compounds were drawn at random from those tested, without regard to their results.

CoaBC: 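Coenzyme A biosynthesis protein CoaBC, Mycobacterium tuberculosis (UniProt P9WNZ1). Enzyme assay of CoaBC with a phosphate dye (Biomol Green) read at 650 nm. Compounds at 30 µM. Higher reads as stronger inhibition, judged from the few compounds that gave an IC50. Most strong results did not repeat in a second test. About 67,000 compounds were tested under these conditions; 0.06% (about 40) showed 50% or more at least once.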
Pks13 thioesterase: 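Polyketide synthase Pks13, Mycobacterium tuberculosis (UniProt I6X8D2). Enzyme assay of the thioesterase domain of polyketide synthase 13; the read-out is not stated. Concentration: 30 µM. Higher reads as stronger inhibition (inferred from which compounds were picked for retests). Of about 67,000 compounds tested this way, about 300 (0.46%) reached 50% or more in at least one test.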
ClpP1P2: 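Protease assay of ClpP1P2, read by the AMC dye that it sets free. Target: ClpP1P2, Mycobacterium tuberculosis (UniProt P9WPC5 and UniProt P9WPC3). Concentration: 50 µM. Higher reads as stronger inhibition, judged from the few compounds that gave an IC50. Most other retested compounds had strongly negative values. Size under these conditions: about 69,000 compounds, about 10 of them at 50% or above in at least one test.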
LiHisRS: 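Histidine-tRNA ligase, Leishmania infantum (UniProt A4I591). Enzyme assay of histidyl-tRNA synthetase; the read-out is not stated. Concentration: 30 µM. Direction is inferred from retests: higher values go with stronger inhibition. The assay is labelled LdHisRS but filed under L. infantum. About 69,000 compounds were tested under these conditions; 0.6% (about 410) showed 50% or more at least once.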
MtTrpRS: 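Enzyme assay of tryptophanyl-tRNA synthetase; the read-out is not stated. Target: Tryptophan-tRNA ligase, Mycobacterium tuberculosis (UniProt P9WFT3). Concentration: 10 µM. Direction is not recorded; retested compounds ran higher, which suggests that high means inhibition. Of about 65,000 compounds tested this way, about 64 (0.098%) reached 50% or more in at least one test.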

{"smiles": "c1cnnc(N2CCCC(NCc3nc(-c4cccs4)no3)C2)c1", "stereo": "stereo unspecified", "CoaBC": 4.019, "Pks13 thioesterase": -7.68, "ClpP1P2": -4.793, "LiHisRS": 24.73, "MtTrpRS": -1.288}
{"smiles": "Cc1ccc2c(c1)C1(CCNCC1)CC2NC1CC1", "stereo": "stereo unspecified", "CoaBC": -1.485, "Pks13 thioesterase": -0.7843, "ClpP1P2": -15.04, "LiHisRS": 2.703}
{"smiles": "CC(O)CN(C)C(=O)Nc1ccn(-c2cccc(C(F)(F)F)c2)n1", "stereo": "stereo unspecified", "CoaBC": 1.463, "Pks13 thioesterase": -23.56, "ClpP1P2": -8.389, "LiHisRS": 5.882, "MtTrpRS": 0.3666}
{"smiles": "Cc1ccnc(NC(=O)c2ccc(C)o2)c1", "CoaBC": -1.597, "Pks13 thioesterase": -12.06, "ClpP1P2": -2.324, "LiHisRS": -1.55, "MtTrpRS": -21.76}
{"smiles": "CCOc1ccc(Br)cc1C1CCCCN1", "stereo": "stereo unspecified", "CoaBC": 4.304, "Pks13 thioesterase": -11.8, "ClpP1P2": -11.13, "LiHisRS": 21.05, "MtTrpRS": -1.568}
{"smiles": "Cc1ccc(CN(C(=O)NCC(c2cccs2)N(C)C)C2CC2)o1", "stereo": "stereo unspecified", "Pks13 thioesterase": -14.41, "ClpP1P2": -6.326, "LiHisRS": 2.857, "MtTrpRS": -8.566}
{"smiles": "CN1CC(C(=O)NCCc2ccc3c(c2)OCCO3)CC1=O", "stereo": "stereo unspecified", "CoaBC": 7.403, "Pks13 thioesterase": 1.208, "ClpP1P2": 1.338, "LiHisRS": 18.07, "MtTrpRS": 2.295}
{"smiles": "CC(=O)N1CCCN(C(=O)NCCCN(C)S(C)(=O)=O)CC1", "CoaBC": 2.273, "Pks13 thioesterase": -0.2205, "ClpP1P2": -3.252, "LiHisRS": 0, "MtTrpRS": 3.381}
{"smiles": "CC1CCN(CCNC(=O)c2scnc2Cl)CC1", "CoaBC": 5.085, "ClpP1P2": -7.075, "LiHisRS": 13.16, "MtTrpRS": 11.61}
{"smiles": "c1ccc(CO[C@H]2CN(c3ncccn3)C[C@@]23CCCO3)cc1", "CoaBC": 0.2283, "Pks13 thioesterase": 6.442, "ClpP1P2": -25.45, "LiHisRS": 13.42, "MtTrpRS": -2.137}
{"smiles": "Cn1cnnc1CCNC(=O)c1cnn(Cc2ccccc2)c1", "CoaBC": 0, "Pks13 thioesterase": -8.918, "ClpP1P2": 6.137, "LiHisRS": 18.37, "MtTrpRS": 8.338}
{"smiles": "Cc1ccc2oc(CNC(C)c3nnc4n3CCCC4)cc2c1", "stereo": "stereo unspecified", "CoaBC": -0.6211, "Pks13 thioesterase": 29.97, "ClpP1P2": 6.53, "LiHisRS": 15.38, "MtTrpRS": -1.876}
{"smiles": "CC(=O)c1cc(CC(=O)NCc2cccc(F)c2F)cs1", "CoaBC": 4.762, "Pks13 thioesterase": -15.34, "ClpP1P2": 1.988, "LiHisRS": 2.778, "MtTrpRS": 5.589}
{"smiles": "Cc1nn(CC(=O)NCc2cc3n(n2)CCCN(CC(C)C)C3)cc1Cl", "CoaBC": 0.2179, "Pks13 thioesterase": 34.49, "ClpP1P2": -4.365, "LiHisRS": -1.754, "MtTrpRS": 47.86}
{"smiles": "O=C(Cc1ccc(O)c(Cl)c1)N1CCN(CC2CC2)[C@@H]2CS(=O)(=O)C[C@@H]21", "CoaBC": -20.68, "Pks13 thioesterase": -8.599, "ClpP1P2": -2.675, "LiHisRS": 4.808, "MtTrpRS": 8.152}
{"smiles": "c1cnc(N2C[C@H]3CCN(c4cccnc4)C[C@H]3C2)nc1", "CoaBC": 1.035, "Pks13 thioesterase": -6.512, "ClpP1P2": 1.749, "LiHisRS": 23.08, "MtTrpRS": -4.878}
{"smiles": "Cn1nccc1C(=O)NC(C)(C)c1noc(C(C)(C)C)n1", "CoaBC": -4.545, "Pks13 thioesterase": -26.71, "ClpP1P2": 12.23, "LiHisRS": 9.333, "MtTrpRS": 3.271}
{"smiles": "Cc1csc(CNC(=O)N2CCCC(c3nncn3C)C2)n1", "stereo": "stereo unspecified", "CoaBC": -0.7168, "Pks13 thioesterase": -15.17, "ClpP1P2": -6.132, "LiHisRS": 3.846, "MtTrpRS": -3.191}

2 of the entries, repeated:

| SMILES | CoaBC | Pks13 thioesterase | ClpP1P2 | LiHisRS | MtTrpRS |
|---|---|---|---|---|---|
| `CC(O)CN(C)C(=O)Nc1ccn(-c2cccc(C(F)(F)F)c2)n1` (stereo unspecified) | 1.463 | -23.56 | -8.389 | 5.882 | 0.3666 |
| `Cc1ccc2oc(CNC(C)c3nnc4n3CCCC4)cc2c1` (stereo unspecified) | -0.6211 | 29.97 | 6.53 | 15.38 | -1.876 |

From ChEMBL document CHEMBL3988442, “University of Dundee, Small-Polar-MMV Screening Library” (2021).